Laboratory results as given in PubChem BioAssay AID2685 (National Center for Advancing Translational Sciences (NCATS), 2010).
The other results are listed elsewhere or left out. The main result of the screen is listed elsewhere. These columns were measured beside it and carry no call. The list favours compounds with an active or inconclusive main result. The note in brackets gives the kind of curve behind each potency; many fits are weak.

Assay: qHTS Assay for Lipid Storage Modulators in Drosophila S3 Cells;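 on cell number change: cells counted by Cell Tracker Red CMTPX staining in the red channel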
Details: BODIPY lipid droplet fluorescence, 18-24 h; for cell number change: measured here: cell count max response, cells fed with added oleic acid
In short: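 Laser-scanning cytometry quantifies lipid droplet accumulation (500–530 nm total intensity; droplet/cell object ratio) in oleic acid-fed (400 uM added) Drosophila S3 cells treated with a concentration series. 20 uM Triacsin C defined 100% inhibition.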

[1] = measured here: lipid fluorescence (Fed channel) AC50, cells fed with added oleic acid
[2] = measured here: cell number channel AC50, cells fed with added oleic acid

With `CC(=O)Nc1ccc(C(=O)N2CCN(C(=O)c3ccco3)CC2)cc1` the cell number change was -11.6% and the AC50 [1] was 0.231 µM [falling, full curve].

For `CC(O)CNc1nc2ccccc2n1CC(=O)NCCc1ccc(Cl)cc1` (stereo not drawn), the AC50 [2] was 0.92 µM [rising, partial curve] and the AC50 [1] was 0.366 µM [rising, full curve].

In the case of `C=CCOc1cccc(C2C(C(=O)c3cccs3)=C(O)C(=O)N2Cc2cccnc2)c1` (stereo not drawn), the cell number change is reported as 8.68% and the AC50 [1] is reported as 3.66 µM [rising, full curve, poor fit].

In the case of `Cc1nn2c(-c3cccc(NC(=O)c4ccco4)c3)nnc2c2ccccc12`, the AC50 [2] is reported as 0.116 µM [rising, full curve] and the AC50 [1] is reported as 0.116 µM [rising, full curve, poor fit].

In the case of `Cc1ccccc1C1C(C#N)=C2N=C(N)c3c(sc4c3CCCCC4)N2C2=C1C(=O)CCC2` (stereo not drawn), the cell number change is reported as -0.891%, the AC50 [2] is reported as 0.00651 µM [falling, full curve, poor fit] and the AC50 [1] is reported as 29.1 µM [falling, single point].

With `CC(=O)NC(Cc1ccc(F)cc1)C(=O)NC1CCN(C(=O)Nc2cccc(C)c2)CC1` (stereo not drawn) the cell number change was 23.8%.

In the case of `CC1CCCN(C(=O)CNS(=O)(=O)c2cccs2)C1` (stereo not drawn), the cell number change is reported as 2.61% and the AC50 [1] is reported as 6.51 µM [falling, single point].

In the case of `Cc1ccc(NC(=O)c2cccc(-n3cnnn3)c2)cc1Cl`, the cell number change is reported as -11.4% and the AC50 [1] is reported as 0.58 µM [falling, full curve, poor fit].

With `Cc1cccc(NC(=O)CSc2nc3ccccc3c(=O)n2C)c1` the cell number change was -31.5% and the AC50 [2] was 7.31 µM [falling, partial curve].

With `CCN1C(=O)Cc2cc(S(=O)(=O)N3CCOCC3)ccc21` the AC50 [2] was 6.51 µM [falling, single point] and the AC50 [1] was 6.51 µM [falling, partial curve, poor fit].

In the case of `C=CCc1c(C)nc(-c2ccccc2)nc1N/N=C(\C)c1ccccc1`, the cell number change is reported as 29.7% and the AC50 [2] is reported as 1.46 µM [rising, full curve, poor fit].

In the case of `Cc1ccc(-n2c(SCc3nc4ccccc4c(=O)[nH]3)nnc2-c2ccccc2O)cc1`, the cell number change is reported as -0.623% and the AC50 [1] is reported as 2.06 µM [rising, partial curve].

In the case of `Cc1c(NC(=O)c2cc(C3CC3)on2)c(=O)n(-c2ccccc2)n1C`, the cell number change is reported as 25% and the AC50 [1] is reported as 29.1 µM [rising, single point].

With `Cc1ccc(S(=O)(=O)n2nccc2-c2c(-c3ccccc3)noc2C)cc1` the cell number change was 11.1%, the AC50 [2] was 1.84 µM [rising, partial curve, poor fit] and the AC50 [1] was 2.06 µM [rising, partial curve].

With `O=C(CN1CCCCC1)Nc1ccccc1NC(=O)CN1CCCCC1` the cell number change was -122%, the AC50 [2] was 20.6 µM [falling, partial curve] and the AC50 [1] was 23.1 µM [falling, partial curve].

For `Cc1cc(=O)oc2cc3c(cc12)OCO3`, the cell number change was 69% and the AC50 [2] was 29.1 µM [rising, single point].

For `O=C1CCN(CCCc2ccccc2)CCN1[C@H](CO)c1ccccc1`, the cell number change was 18% and the AC50 [1] was 5.8 µM [rising, full curve].

With `O=[N+]([O-])c1ccc(N2CCN(c3ccccc3O)CC2)c(Cl)c1` the cell number change was -30.6%.

In the case of `COc1ccc(CCN(C)C(=O)c2ccc(S(=O)(=O)NCc3ccco3)cc2)cc1OC`, the cell number change is reported as -50% and the AC50 [2] is reported as 29.1 µM [falling, single point].

With `Cc1ccc2cccc(OCc3ccccc3)c2n1` the cell number change was 8.89%.

In the case of `CCCC(=O)NC(=S)Nc1cccc2c(O)cccc12`, the cell number change is reported as 44.1%, the AC50 [2] is reported as 16.4 µM [rising, single point] and the AC50 [1] is reported as 29.1 µM [rising, single point].

For `CC1=NN(c2ccc(N)cc2)C(=O)C1`, the cell number change was -0.131% and the AC50 [1] was 0.651 µM [falling, single point].

In the case of `CCN(CC(=O)Nc1ccc(NC(C)=O)cc1)CC(=O)Nc1ccccc1C(=O)c1ccccc1`, the cell number change is reported as -73.8%, the AC50 [2] is reported as 0.116 µM [falling, full curve, poor fit] and the AC50 [1] is reported as 0.461 µM [falling, full curve].

For `Cc1ccc(NC(=S)c2nc3ccccc3s2)cc1`, the cell number change was -69.3%, the AC50 [2] was 25.9 µM [falling, single point] and the AC50 [1] was 29.1 µM [falling, single point].

For `COc1ccc(NC(=O)c2cn(CCC#N)nc2-c2cc3ccccc3o2)cc1`, the cell number change was -14% and the AC50 [1] was 29.1 µM [falling, single point].

Compound `Cc1ccccc1NC(=O)CCN1CCN(C)CC1` has a cell number change of 15.1%.

For `Cc1ccc(C)c(NC(=O)COC(=O)c2nc(Cl)ccc2Cl)c1`, the cell number change was 50.7%, the AC50 [2] was 0.00517 µM [rising, full curve, poor fit] and the AC50 [1] was 0.0651 µM [rising, full curve, poor fit].

Compound `O=C(c1nc2ccc(Cl)cn2c1CN1CCCC1)N1CCc2ccccc2C1` has a cell number change of -22%.

With `Cc1ccccc1NC(=O)C(=O)c1cn(C)c2ccccc12` the cell number change was 23.1% and the AC50 [1] was 4.61 µM [rising, partial curve, poor fit].

With `O=C(COc1ccc(S(=O)(=O)N2CCCCC2)cc1)N1CCCCCC1` the cell number change was 15% and the AC50 [1] was 0.651 µM [falling, single point].

In the case of `O=C(CCl)Nc1ccccc1Sc1ccccc1`, the cell number change is reported as -0.266% and the AC50 [1] is reported as 4.61 µM [rising, full curve, poor fit].

With `CCCC1=C/C(=C/c2ccc(-c3ccccc3OC)o2)C(=O)O1` the cell number change was 11.6% and the AC50 [1] was 0.92 µM [rising, full curve].

In the case of `Cc1ccc(Nc2nc(C)cc(C)n2)c(Br)c1`, the cell number change is reported as 10.2%, the AC50 [2] is reported as 5.8 µM [rising, single point] and the AC50 [1] is reported as 5.17 µM [rising, full curve].

For `Cc1cc2cc(CNC(=S)Nc3ccc(OC(F)F)cc3)ccc2[nH]1`, the cell number change was 4.49% and the AC50 [1] was 0.92 µM [rising, full curve, poor fit].

With `CO[C@H]1O[C@H](C)[C@@H](O)C[C@H]1NC(=O)OCc1ccccc1` the cell number change was 3.57%.

In the case of `Cc1ccc(NC(=O)C2C(=O)N(C)c3ccccc32)cc1` (stereo not drawn), the cell number change is reported as -3.7% and the AC50 [1] is reported as 2.06 µM [falling, partial curve].

For `Cc1nc(Nc2ccc(Cl)cc2)c(C#N)c(=O)[nH]1`, the cell number change was 23.5% and the AC50 [1] was 29.1 µM [rising, single point].

With `CN[C@@H]1CC[C@H](c2ccc(Cl)c(Cl)c2)c2ccccc21` the cell number change was -36.9% and the AC50 [2] was 32.6 µM [falling, single point].
